This is one part of the list. The calls rarely recur for the same compound in another form.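 Kinases were expressed as nanoluciferase fusions in K562 cells and luminescence was read every 4 h between 2 and 18 h as percent of control, DMSO set to 100% and a positive control to 0%. A time point counts as decreased when the signal drops significantly (2 sigma). The hit call is the authors' own, does not follow from the count of time points alone, and its rule is not shown.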
Assays:
Details in all cases: K562; 2-18 h
ROR2 = ROR2 (UniProt Q01974); assay: number of time points (of 5) at which kinase-Nluc abundance scored as decreased, DMSO-normalised (count); higher = more persistent destabilization
RPS6KA1 = RPS6KA1 (UniProt Q15418); assay: as above
SPHK1 = SPHK1 (UniProt Q9NYA1); assay: as above
SRC = SRC (UniProt P12931); assay: as above
STK24 = STK24 (UniProt Q9Y6E0); assay: as above
STK38 = STK38 (UniProt Q15208); assay: as above
SYK = SYK (UniProt P43405); assay: as above
TEC = TEC (UniProt P42680); assay: as above
TYK2 = TYK2 (UniProt P29597); assay: as above
ULK3 = ULK3 (UniProt Q6PHR2); assay: as above
YES1 = YES1 (UniProt P07947); assay: as above
ZAK = ZAK (UniProt Q9NYL2); assay: as above
ZAP70 = ZAP70 (UniProt P43403); assay: as above
CDK4 = CDK4 (UniProt P11802); assay: number of time points (of 4; 2 h point missing) at which kinase-Nluc abundance scored as decreased, DMSO-normalised (count); higher = more persistent destabilization
CDK7 = CDK7 (UniProt P50613); assay: as above
CDK9 = CDK9 (UniProt P50750); assay: as above

Amino acid sequences for entries named in this document (tags omitted). A change or cut given only in a name is not applied to a line headed by its entry.
UniProt Q01974, whole entry: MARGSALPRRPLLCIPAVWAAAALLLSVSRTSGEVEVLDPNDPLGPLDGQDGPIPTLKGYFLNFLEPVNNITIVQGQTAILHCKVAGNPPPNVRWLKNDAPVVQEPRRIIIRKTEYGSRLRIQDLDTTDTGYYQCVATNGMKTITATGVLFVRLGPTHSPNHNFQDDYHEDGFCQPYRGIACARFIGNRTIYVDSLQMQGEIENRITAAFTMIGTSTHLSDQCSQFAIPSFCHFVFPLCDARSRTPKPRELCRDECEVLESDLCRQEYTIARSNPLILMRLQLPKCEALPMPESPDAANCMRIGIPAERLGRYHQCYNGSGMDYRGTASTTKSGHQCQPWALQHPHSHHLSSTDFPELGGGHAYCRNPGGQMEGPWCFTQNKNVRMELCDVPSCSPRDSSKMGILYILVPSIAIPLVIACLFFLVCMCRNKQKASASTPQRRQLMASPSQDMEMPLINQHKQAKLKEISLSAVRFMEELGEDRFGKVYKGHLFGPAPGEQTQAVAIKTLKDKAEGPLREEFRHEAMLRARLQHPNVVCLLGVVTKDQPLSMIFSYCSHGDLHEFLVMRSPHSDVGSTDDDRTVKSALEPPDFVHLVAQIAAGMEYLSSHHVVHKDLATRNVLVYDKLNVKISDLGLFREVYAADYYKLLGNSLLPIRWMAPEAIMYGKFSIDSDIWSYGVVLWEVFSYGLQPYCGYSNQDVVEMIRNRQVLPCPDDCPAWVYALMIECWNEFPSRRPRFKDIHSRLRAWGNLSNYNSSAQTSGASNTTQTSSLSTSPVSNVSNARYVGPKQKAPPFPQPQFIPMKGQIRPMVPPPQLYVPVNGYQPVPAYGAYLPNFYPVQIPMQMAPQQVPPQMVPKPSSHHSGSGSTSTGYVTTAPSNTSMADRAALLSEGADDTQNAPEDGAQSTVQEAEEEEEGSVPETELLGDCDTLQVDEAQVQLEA
UniProt Q15418, whole entry: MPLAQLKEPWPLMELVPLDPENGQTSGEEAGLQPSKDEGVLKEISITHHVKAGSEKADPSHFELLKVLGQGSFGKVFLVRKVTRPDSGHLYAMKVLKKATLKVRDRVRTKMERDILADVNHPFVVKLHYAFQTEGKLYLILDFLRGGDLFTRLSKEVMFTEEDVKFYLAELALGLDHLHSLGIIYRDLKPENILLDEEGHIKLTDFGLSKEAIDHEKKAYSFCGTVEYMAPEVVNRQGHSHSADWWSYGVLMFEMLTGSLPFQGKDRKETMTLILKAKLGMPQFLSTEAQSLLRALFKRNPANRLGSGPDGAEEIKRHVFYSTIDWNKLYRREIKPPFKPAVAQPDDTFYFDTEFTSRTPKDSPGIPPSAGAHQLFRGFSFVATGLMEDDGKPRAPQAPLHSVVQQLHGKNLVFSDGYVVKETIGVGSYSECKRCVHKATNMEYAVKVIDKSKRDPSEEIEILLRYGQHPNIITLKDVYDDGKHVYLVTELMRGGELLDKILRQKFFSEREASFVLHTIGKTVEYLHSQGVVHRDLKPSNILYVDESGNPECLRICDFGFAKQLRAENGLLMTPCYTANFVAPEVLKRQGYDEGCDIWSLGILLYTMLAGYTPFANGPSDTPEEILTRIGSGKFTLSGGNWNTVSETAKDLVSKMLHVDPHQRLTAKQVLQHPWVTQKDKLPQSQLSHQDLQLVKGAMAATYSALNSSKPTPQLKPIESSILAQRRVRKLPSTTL
UniProt Q9NYA1, whole entry: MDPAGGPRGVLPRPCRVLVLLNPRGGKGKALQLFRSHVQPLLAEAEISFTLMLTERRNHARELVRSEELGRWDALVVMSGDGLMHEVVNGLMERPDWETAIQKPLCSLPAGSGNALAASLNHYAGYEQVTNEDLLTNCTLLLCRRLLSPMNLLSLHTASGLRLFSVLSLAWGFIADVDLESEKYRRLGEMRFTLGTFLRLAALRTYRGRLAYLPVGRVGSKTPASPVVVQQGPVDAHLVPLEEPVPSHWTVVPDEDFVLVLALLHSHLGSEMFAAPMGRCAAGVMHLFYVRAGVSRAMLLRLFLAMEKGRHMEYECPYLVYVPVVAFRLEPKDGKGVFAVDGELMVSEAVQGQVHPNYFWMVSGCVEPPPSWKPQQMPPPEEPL
UniProt Q9Y6E0: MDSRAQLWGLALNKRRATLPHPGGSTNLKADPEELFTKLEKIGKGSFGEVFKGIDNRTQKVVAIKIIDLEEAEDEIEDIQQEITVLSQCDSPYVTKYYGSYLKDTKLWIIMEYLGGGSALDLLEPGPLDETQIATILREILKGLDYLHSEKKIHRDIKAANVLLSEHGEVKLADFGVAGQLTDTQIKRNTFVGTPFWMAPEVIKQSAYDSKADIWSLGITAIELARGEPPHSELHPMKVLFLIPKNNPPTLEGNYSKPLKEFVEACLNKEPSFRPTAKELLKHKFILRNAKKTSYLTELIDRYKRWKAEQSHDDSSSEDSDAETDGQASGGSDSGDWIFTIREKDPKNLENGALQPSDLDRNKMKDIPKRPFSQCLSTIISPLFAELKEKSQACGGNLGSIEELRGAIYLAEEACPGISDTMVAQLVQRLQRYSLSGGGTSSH
UniProt Q15208: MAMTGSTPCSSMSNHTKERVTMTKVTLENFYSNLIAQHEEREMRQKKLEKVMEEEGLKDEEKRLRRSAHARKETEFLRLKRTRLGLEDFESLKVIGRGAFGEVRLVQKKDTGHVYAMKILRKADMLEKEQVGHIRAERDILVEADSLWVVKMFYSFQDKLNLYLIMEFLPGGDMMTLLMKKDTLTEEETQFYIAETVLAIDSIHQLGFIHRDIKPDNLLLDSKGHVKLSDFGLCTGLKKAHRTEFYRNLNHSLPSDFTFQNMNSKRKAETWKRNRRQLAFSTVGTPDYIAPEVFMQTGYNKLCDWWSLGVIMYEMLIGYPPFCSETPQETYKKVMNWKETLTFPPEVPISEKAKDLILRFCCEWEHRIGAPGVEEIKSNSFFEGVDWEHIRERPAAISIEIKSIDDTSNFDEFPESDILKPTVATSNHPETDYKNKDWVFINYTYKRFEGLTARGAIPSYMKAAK
UniProt P29597: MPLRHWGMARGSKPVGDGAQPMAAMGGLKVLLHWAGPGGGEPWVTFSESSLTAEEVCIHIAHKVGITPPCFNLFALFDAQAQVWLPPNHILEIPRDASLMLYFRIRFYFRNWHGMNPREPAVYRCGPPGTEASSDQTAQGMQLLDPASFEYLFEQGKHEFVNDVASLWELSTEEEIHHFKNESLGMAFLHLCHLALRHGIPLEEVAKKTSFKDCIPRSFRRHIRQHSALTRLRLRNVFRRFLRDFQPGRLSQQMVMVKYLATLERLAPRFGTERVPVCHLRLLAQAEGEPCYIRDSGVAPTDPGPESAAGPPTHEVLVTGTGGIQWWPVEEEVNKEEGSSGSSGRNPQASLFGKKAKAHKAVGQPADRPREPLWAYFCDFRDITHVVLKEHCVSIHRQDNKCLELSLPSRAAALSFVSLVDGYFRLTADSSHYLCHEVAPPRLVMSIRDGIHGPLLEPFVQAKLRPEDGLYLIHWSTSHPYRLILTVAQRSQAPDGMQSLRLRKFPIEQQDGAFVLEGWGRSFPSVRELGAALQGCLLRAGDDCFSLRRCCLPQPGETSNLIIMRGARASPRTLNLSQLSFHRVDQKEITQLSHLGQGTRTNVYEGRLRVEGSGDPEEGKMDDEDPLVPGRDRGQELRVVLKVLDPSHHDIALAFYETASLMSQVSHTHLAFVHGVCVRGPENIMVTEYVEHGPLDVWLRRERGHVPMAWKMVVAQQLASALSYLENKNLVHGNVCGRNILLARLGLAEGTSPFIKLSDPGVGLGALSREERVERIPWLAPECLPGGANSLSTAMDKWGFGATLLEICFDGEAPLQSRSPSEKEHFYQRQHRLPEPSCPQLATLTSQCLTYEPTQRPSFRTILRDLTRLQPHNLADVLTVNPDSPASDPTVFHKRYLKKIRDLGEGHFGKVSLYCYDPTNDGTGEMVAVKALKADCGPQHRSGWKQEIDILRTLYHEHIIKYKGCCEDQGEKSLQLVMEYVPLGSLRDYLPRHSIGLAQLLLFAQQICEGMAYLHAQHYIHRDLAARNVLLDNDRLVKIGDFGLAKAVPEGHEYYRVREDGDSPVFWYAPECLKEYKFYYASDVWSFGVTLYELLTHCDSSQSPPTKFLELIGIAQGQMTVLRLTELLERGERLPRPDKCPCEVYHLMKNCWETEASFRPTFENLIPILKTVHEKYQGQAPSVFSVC
UniProt Q6PHR2: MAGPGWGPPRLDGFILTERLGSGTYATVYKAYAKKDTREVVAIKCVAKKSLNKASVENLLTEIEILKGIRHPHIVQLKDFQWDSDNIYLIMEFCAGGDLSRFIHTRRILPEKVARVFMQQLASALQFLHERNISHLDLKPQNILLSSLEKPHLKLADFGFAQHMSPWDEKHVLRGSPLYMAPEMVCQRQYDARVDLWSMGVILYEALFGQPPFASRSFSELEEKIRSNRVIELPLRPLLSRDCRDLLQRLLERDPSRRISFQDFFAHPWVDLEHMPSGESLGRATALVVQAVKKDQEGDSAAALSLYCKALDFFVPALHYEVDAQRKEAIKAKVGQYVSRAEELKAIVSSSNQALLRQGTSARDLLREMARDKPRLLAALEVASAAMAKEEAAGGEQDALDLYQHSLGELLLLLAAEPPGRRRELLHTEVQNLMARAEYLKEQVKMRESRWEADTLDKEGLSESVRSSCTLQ
UniProt P07947, whole entry, looked up: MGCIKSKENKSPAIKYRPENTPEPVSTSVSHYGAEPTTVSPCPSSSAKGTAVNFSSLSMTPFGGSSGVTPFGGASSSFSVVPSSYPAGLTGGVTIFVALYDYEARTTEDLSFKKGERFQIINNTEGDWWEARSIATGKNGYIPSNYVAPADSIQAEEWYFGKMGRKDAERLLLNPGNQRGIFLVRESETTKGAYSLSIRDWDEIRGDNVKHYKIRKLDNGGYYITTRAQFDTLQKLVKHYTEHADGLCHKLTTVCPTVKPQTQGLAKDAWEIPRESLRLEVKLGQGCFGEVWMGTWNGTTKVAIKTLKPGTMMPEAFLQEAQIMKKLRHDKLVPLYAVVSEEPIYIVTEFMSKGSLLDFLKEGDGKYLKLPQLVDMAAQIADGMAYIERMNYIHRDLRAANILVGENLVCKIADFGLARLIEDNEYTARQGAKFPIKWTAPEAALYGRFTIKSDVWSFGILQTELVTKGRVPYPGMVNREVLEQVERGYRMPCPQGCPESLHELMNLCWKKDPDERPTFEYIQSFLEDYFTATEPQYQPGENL
UniProt P43403: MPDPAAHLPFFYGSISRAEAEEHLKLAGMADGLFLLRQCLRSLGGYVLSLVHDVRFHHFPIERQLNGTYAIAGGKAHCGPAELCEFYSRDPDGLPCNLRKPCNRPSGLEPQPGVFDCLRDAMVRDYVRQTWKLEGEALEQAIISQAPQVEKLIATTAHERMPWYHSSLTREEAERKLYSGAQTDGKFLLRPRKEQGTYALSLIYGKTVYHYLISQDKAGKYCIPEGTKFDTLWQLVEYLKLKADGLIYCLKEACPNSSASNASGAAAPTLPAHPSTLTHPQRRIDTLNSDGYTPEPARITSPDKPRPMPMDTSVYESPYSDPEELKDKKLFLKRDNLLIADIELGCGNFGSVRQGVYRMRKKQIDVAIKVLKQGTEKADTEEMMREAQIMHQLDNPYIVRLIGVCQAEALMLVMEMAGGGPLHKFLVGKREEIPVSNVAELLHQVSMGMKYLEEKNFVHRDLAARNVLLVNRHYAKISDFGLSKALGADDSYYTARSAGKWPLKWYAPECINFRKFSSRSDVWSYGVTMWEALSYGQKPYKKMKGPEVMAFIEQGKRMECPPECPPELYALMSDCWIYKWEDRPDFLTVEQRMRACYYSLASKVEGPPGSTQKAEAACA
UniProt P11802: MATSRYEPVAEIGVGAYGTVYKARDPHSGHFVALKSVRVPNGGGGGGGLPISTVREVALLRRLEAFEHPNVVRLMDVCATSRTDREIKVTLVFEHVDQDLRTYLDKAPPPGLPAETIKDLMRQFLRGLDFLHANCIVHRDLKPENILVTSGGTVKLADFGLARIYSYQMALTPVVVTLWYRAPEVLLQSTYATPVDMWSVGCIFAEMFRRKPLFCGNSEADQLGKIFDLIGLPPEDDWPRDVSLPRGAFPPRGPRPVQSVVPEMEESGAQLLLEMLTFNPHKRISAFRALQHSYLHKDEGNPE
UniProt P50613: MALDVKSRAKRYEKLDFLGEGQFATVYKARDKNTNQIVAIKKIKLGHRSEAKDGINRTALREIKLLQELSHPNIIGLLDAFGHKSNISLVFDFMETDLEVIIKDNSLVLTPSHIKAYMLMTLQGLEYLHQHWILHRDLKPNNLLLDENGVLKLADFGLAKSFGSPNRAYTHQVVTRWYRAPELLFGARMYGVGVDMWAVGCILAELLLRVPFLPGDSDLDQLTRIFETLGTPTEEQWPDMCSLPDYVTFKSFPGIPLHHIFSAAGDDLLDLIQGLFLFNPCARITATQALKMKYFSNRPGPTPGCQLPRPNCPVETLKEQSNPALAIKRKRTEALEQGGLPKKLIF

Measured: number of time points

Fc1ccc(-c2nc3n(c2-c2ccncc2)CCS3)cc1 (10 µM)
0: all assays above

Cc1cc(N2CCOCC2)ccc1Nc1nc(NC2CCCCC2)c2[nH]cnc2n1 (10 µM)
0: all assays above

CC(ONC(=O)c1cc(C(F)(F)F)cc(C(F)(F)F)c1)C(=O)Nc1ccc(Cl)cc1 (centres undefined) (2.5 µM)
5: TYK2
4: CDK7 | CDK9
0: all other assays above

Ordered by length of the SMILES (low to high): part of the list above.
Fc1ccc(-c2nc3n(c2-c2ccncc2)CCS3)cc1 (10 µM)
0: all assays above

Cc1cc(N2CCOCC2)ccc1Nc1nc(NC2CCCCC2)c2[nH]cnc2n1 (10 µM)
0: all assays above

CC(ONC(=O)c1cc(C(F)(F)F)cc(C(F)(F)F)c1)C(=O)Nc1ccc(Cl)cc1 (centres undefined) (2.5 µM)
5: TYK2
4: CDK7 | CDK9
0: all other assays above

Additional records follow:

O=c1c(O)c(-c2ccc(O)c(O)c2)oc2cc(O)c(O)c(O)c12 [Quercetagetin] (10 µM)
0: all assays above

Nc1nccc(Oc2ccc3c(C(=O)Nc4cccc(C(F)(F)F)c4)cccc3c2)n1 (10 µM)
3: ULK3 | CDK7 | CDK9
1: TYK2
2: TEC
0: all other assays above

COc1cc2nc(-c3cc(F)ccc3O)nc(N[C@@H]3CNC[C@H]3C(C)(C)O)c2cc1OC (2.5 µM)
0: all assays above

Cc1ncsc1-c1ccc(CNC(=O)[C@@H]2C[C@@H](O)CN2C(=O)[C@@H](NC(=O)COCCOc2ccc(-c3cc(Nc4ccc(OC(F)(F)F)cc4)ncn3)cc2)C(C)(C)C)cc1 (2.5 µM)
3: TYK2 | CDK7
1: STK38 | TEC | ZAK | CDK9
2: ULK3
0: all other assays above

O=C(O)/C=C(\CCc1ccc(Cl)cc1)c1ccccc1 (10 µM)
0: all assays above

CO/N=C1/C(c2c(O)[nH]c3cc(Cl)c(Cl)cc23)=Nc2ccccc21 (10 µM)
0: all assays above

O=C1C=CC2=C3c4cc(O)c(O)cc4CC3(O)COC2=C1O (centres undefined) [Hematein] (10 µM)
0: all assays above

O=c1cc(N2CCOCC2)oc2c(-c3cccc4c3sc3ccccc34)cccc12 (10 µM)
0: all assays above

Cc1ccc(NC(=O)N2CCN(c3nc(N)nc4sc(-c5cccnc5)nc34)CC2)cc1 [PI4KIII beta inhibitor 3] (10 µM)
0: all assays above

O=C1Cc2ccccc2N1 [Oxindole] (10 µM)
0: all assays above

NC(=O)c1sc2c([N+](=O)[O-])cc(C(F)(F)F)cc2[n+]1[O-] [Cyclapolin 9] (10 µM)
0: all assays above
